Source: US20240376224A1 (University of California, published 2024)
These are yes or no findings as the source states them, for the method shown. For some of these results: In cells and extracts the contact can be indirect. Some binding calls cover weakened binding; strength is not graded here. For some of these results: Where a sequence is shown, tags or fusion partners need not be part of it.

How the values were obtained:
[1] = target: T1, NTF of endogenous cleaved CDCP1 of PDAC cells (human) (UniProt Q9H5V8); test: co-immunoprecipitation with IgG 4A06, western blot with CDCP1 (D1W9N)
T1 sequence: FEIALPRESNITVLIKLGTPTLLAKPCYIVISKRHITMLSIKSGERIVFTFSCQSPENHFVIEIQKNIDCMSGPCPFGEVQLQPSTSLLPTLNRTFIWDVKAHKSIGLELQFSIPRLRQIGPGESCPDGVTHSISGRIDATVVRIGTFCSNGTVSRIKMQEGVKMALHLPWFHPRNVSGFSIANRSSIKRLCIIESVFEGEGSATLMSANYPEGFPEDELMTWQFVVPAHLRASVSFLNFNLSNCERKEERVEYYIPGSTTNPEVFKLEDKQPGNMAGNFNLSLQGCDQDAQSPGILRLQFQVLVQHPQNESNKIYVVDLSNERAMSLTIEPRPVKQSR

[2] = target: T1, NTF of endogenous cleaved CDCP1 of PDAC cells (human); test: co-immunoprecipitation from PDAC cell lysates with IgG 4A06, blot
[3] = target: T2, CTF-Fc of recombinant mouse c-CDCP1-Fc (mouse) (UniProt Q5U462); test: SEC of mouse fl-CDCP1-Fc, c-CDCP1-Fc (Cut 1) and c-CDCP1-Fc (Cut 2)
T2 sequence: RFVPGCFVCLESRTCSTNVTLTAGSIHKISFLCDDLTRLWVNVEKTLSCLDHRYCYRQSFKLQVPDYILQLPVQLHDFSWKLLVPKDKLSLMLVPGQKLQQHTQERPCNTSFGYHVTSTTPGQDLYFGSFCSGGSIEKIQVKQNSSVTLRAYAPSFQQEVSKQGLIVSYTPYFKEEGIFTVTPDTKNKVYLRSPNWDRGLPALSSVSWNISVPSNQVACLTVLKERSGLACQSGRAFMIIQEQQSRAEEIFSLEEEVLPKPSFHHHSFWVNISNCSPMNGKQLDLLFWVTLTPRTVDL

[4] = target: T3, CTF-Fc of thrombin-cleaved CDCP1(Tx)-Fc (human) (UniProt Q9H5V8); test: thrombin cleavage of CDCP1(Tx)-Fc; SDS-PAGE, BLI and SEC
T3 sequence: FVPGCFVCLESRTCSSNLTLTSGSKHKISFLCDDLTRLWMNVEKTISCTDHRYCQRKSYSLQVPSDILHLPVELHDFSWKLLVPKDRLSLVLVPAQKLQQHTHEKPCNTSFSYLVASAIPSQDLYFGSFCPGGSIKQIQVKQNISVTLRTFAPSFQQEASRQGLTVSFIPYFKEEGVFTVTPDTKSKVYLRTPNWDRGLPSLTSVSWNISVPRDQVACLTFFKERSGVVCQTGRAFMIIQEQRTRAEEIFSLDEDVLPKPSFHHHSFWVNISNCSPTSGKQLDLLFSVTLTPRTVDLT

CTF of endogenous cleaved CDCP1 of PDAC cells (from UniProt Q9H5V8 369-836) (receptor)
binding [1]: binds
binding [2]: binds

B1: NTF of recombinant mouse c-CDCP1-Fc (receptor)
chain: SEIALPQRSGVTVSIKLGNPALPVKICYIVMSRQHITELIIRPGERKSFTFSCSNPEKHFVLKIEKNIDCMSGPCPFGEVHLQPSTSELPILNRTFIWDVRAHKSIGLELQFATPRLRQIGPGESCADGVTHSISGHIDATEVRIGTFCSNGTVSRIKMQEGVKMALHLPWFHRRNVSGFSIANRSSIKRLCIIESVFEGEGSATLMSANYPGGFPEDELMTWQFVVPAHLRASVSFLNFNVSNCERKEERVEYYIPGSTTNPEVFRLEDKQPGNMAGNFNLSLQGCDQDAQSPGILRLQFQVLVQRPQDESNKTYMVDLSRERTMSLTIEPRPVKHGR
binding [3]: binds

B2: NTF of thrombin-cleaved CDCP1(Tx)-Fc (receptor)
chain: FEIALPRESNITVLIKLGTPTLLAKPCYIVISKRHITMLSIKSGERIVFTFSCQSPENHFVIEIQKNIDCMSGPCPFGEVQLQPSTSLLPTLNRTFIWDVKAHKSIGLELQFSIPRLRQIGPGESCPDGVTHSISGRIDATVVRIGTFCSNGTVSRIKMQEGVKMALHLPWFHPRNVSGFSIANRSSIKRLCIIESVFEGEGSATLMSANYPEGFPEDELMTWQFVVPAHLRASVSFLNFNLSNCERKEERVEYYIPGSTTNPEVFKLEDKQPGNMAGNFNLSLQGCDQDAQSPGILRLQFQVLVQHPQNESNKIYVVDLSNERAMSLTIEPRPVKQS
binding [4]: binds
